At least one structure is not confirmed: it was looked up by name or label, or the drawing left a doubt.
Conditions: Table 1; capacity factor extrapolated to 0% methanol; average of three to five determinations; pH 7.4

With `COC(=O)[C@H]1[C@@H](OC(=O)c2ccccc2)C[C@@H]2CC[C@H]1N2C` [Cocaine] as the molecule, how does the “log k′w” value read?
The value was 0.24.

From patent publication US20020161528A1, “Tool for lipophilicity determination in drug discovery basic and neutral compounds” (Pfizer Inc., priority 2001, published 2002)
